Data taken from patent US20060014179.
For some assays here: No signal at the amounts used counts as a negative. Protein sequences can lack the tags named with them.

Experiments:
[1] = molecular target: T1, BssHII (UniProt O30876); test: enzyme reaction in vitro; conditions: single GCGCGC site is cut by BssHII; purified native protein
T1 sequence (looked up, limits assumed): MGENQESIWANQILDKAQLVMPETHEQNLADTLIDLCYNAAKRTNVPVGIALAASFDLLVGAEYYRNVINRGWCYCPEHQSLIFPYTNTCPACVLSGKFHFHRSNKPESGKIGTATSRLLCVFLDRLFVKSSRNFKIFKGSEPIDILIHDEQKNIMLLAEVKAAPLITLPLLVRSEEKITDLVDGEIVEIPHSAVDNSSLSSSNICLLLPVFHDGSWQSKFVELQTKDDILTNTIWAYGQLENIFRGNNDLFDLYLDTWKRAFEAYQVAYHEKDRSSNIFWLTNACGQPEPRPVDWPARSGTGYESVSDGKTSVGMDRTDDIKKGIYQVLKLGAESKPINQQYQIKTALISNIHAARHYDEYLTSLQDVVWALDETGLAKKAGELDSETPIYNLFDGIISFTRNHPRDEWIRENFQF

[2] = molecular target: T2, Mca1617 restriction endonuclease (printed Mcal617), co-expressed with Mca1616 methyltransferase (Methylococcus capsulatus) (UniProt Q607Y4); test: enzyme reaction in vitro; conditions: single GCGCGC site not detectably cut; protein in an extract
T2 sequence (looked up, limits assumed): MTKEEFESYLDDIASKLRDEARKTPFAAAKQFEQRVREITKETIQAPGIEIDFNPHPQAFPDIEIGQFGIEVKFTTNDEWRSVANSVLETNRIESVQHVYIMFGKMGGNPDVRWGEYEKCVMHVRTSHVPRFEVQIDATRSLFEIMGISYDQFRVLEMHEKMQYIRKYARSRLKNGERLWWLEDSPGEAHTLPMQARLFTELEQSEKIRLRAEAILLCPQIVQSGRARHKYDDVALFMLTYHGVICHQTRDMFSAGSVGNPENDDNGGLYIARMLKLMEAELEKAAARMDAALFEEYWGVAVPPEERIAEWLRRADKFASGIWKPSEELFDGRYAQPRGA

“GCGCGC (double strand) [PhiX174 DNA (single GCGCGC site)]” was tested, and the “activity on this sequence” value [1] was “active” and the “activity on this sequence” value [2] was “not active”.
